Experimental data: publication PMC11574364
For at least one entry, the source does not settle the construct or the ends of the probe. For part of these data: Protein sequences can lack the tags named with them.

By UniProt entry, the sequences of proteins in these tests, tags left out. Where a name states a change or a piece, a line headed by the entry shows the natural chain unless it says otherwise.
UniProt Q8NDZ0: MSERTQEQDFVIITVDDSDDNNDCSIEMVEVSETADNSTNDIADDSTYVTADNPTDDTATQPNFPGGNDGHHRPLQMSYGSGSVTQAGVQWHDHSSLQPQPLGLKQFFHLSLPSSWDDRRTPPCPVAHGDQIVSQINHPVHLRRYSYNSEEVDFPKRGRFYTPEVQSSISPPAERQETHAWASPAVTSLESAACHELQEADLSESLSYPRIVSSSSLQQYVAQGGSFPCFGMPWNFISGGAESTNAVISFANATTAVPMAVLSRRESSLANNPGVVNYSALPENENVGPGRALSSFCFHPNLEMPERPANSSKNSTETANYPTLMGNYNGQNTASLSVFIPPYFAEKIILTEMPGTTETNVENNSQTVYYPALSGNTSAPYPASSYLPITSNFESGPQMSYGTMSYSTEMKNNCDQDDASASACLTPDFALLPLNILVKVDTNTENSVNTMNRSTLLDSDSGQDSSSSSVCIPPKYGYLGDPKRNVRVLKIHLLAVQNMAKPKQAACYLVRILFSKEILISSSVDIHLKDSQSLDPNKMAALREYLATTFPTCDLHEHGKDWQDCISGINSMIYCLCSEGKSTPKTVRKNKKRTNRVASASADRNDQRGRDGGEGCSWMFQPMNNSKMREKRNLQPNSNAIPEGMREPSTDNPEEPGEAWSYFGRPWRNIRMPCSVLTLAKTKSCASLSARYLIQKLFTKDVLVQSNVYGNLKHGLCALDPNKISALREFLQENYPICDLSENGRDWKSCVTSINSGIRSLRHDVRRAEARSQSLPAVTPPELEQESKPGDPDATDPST
UniProt Q8N6Q1: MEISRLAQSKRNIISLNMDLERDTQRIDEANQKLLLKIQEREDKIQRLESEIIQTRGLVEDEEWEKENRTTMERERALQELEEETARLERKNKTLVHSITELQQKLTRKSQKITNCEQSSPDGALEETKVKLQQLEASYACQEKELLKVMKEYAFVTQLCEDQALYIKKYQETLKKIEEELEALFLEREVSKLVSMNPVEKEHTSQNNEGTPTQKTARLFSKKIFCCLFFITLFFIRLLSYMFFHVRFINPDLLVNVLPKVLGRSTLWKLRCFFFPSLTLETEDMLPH
UniProt Q8NF99: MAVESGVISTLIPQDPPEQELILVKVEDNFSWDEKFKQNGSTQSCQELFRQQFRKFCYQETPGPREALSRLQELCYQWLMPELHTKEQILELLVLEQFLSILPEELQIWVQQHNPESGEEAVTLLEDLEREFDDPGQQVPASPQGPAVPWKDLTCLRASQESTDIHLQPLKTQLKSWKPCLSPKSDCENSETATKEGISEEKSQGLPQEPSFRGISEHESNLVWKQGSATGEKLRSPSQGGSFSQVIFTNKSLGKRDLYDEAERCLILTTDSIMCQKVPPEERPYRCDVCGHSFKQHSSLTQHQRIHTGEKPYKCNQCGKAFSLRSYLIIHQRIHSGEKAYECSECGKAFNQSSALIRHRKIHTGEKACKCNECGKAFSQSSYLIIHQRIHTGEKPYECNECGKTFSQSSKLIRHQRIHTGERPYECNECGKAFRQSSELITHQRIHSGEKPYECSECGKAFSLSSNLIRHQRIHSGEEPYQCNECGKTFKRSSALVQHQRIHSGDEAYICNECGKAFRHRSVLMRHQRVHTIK
UniProt Q9UBK9, whole entry: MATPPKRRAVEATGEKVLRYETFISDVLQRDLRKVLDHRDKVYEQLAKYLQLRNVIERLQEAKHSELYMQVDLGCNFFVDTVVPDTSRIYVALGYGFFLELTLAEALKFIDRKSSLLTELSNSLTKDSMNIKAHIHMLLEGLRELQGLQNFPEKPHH
UniProt O95202: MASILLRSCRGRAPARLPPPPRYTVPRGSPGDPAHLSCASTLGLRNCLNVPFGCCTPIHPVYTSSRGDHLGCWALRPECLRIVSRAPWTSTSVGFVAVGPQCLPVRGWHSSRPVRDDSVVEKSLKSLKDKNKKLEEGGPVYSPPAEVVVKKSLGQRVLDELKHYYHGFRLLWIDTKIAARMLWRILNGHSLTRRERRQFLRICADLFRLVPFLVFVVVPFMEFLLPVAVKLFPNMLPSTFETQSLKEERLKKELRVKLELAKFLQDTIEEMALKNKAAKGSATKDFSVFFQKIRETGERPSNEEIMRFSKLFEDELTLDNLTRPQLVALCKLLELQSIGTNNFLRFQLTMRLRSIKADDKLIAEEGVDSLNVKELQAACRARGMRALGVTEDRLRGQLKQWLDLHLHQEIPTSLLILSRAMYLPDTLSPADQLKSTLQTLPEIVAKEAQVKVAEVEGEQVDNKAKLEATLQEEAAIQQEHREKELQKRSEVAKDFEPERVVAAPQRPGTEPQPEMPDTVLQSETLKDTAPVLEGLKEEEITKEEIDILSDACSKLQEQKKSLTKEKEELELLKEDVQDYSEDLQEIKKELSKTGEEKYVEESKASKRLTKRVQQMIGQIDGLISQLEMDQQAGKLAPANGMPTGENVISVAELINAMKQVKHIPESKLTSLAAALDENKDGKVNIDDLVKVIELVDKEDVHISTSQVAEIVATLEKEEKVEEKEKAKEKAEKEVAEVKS

Key:
Experiment in all cases: human ORF protein microarray
CXorf20 (Homo sapiens) = CXorf20 (Homo sapiens) (UniProt Q8NDZ0); details: 5' phosphate; Domain array: 20 mM Tris-HCl pH 7.4, 200 mM KCl, 0.2 mM EDTA, 0.05% NP40, 2 ug/ul heparin, overnight 4 C. ORF array: PBS pH 7.0 with RNase inhibitor, 100 ng RNA, 1 h.; recombinant protein; protein details: N-terminal GST-6xHis; label: internal DY647 at G18; letters put together from the description
DTNA (Homo sapiens) = target: T1, DTNA (Homo sapiens) (UniProt Q9Y4J8); details: 5' phosphate; Domain array: 20 mM Tris-HCl pH 7.4, 200 mM KCl, 0.2 mM EDTA, 0.05% NP40, 2 ug/ul heparin, overnight 4 C. ORF array: PBS pH 7.0 with RNase inhibitor, 100 ng RNA, 1 h.; recombinant protein; protein details: N-terminal GST-6xHis; label: internal DY647 at G18; letters put together from the description
T1 sequence (looked up, limits assumed): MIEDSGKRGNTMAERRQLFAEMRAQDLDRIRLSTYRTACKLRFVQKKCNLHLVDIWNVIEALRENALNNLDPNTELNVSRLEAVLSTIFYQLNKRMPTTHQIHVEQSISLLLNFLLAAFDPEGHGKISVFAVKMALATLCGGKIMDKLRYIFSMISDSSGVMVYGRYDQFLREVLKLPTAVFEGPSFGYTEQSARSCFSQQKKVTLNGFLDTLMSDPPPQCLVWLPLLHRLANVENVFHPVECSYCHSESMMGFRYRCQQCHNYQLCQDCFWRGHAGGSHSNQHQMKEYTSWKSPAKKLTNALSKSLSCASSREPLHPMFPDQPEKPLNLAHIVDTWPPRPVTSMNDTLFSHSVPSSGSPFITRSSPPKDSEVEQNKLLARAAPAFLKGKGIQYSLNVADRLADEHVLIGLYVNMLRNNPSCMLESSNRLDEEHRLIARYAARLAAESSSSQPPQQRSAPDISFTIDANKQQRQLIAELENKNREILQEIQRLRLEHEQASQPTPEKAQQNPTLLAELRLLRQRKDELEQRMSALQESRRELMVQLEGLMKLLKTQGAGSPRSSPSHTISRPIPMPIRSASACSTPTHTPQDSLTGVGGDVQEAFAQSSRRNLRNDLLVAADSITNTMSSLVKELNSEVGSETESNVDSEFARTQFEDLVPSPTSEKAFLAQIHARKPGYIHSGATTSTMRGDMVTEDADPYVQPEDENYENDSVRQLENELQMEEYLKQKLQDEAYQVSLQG

TMCO5 (Homo sapiens) = TMCO5 (Homo sapiens) (UniProt Q8N6Q1); details: 5' phosphate; Domain array: 20 mM Tris-HCl pH 7.4, 200 mM KCl, 0.2 mM EDTA, 0.05% NP40, 2 ug/ul heparin, overnight 4 C. ORF array: PBS pH 7.0 with RNase inhibitor, 100 ng RNA, 1 h.; recombinant protein; protein details: N-terminal GST-6xHis; label: internal DY647 at G18; letters put together from the description
ZNF397 (Homo sapiens) = ZNF397 (Homo sapiens) (UniProt Q8NF99); details: 5' phosphate; Domain array: 20 mM Tris-HCl pH 7.4, 200 mM KCl, 0.2 mM EDTA, 0.05% NP40, 2 ug/ul heparin, overnight 4 C. ORF array: PBS pH 7.0 with RNase inhibitor, 100 ng RNA, 1 h.; recombinant protein; protein details: N-terminal GST-6xHis; label: internal DY647 at G18; letters put together from the description
ZRANB1 (Homo sapiens) = target: T2, ZRANB1 (Homo sapiens) (UniProt Q9UGI0); details: 5' phosphate; Domain array: 20 mM Tris-HCl pH 7.4, 200 mM KCl, 0.2 mM EDTA, 0.05% NP40, 2 ug/ul heparin, overnight 4 C. ORF array: PBS pH 7.0 with RNase inhibitor, 100 ng RNA, 1 h.; recombinant protein; protein details: N-terminal GST-6xHis; label: internal DY647 at G18; letters put together from the description
T2 sequence (looked up, limits assumed): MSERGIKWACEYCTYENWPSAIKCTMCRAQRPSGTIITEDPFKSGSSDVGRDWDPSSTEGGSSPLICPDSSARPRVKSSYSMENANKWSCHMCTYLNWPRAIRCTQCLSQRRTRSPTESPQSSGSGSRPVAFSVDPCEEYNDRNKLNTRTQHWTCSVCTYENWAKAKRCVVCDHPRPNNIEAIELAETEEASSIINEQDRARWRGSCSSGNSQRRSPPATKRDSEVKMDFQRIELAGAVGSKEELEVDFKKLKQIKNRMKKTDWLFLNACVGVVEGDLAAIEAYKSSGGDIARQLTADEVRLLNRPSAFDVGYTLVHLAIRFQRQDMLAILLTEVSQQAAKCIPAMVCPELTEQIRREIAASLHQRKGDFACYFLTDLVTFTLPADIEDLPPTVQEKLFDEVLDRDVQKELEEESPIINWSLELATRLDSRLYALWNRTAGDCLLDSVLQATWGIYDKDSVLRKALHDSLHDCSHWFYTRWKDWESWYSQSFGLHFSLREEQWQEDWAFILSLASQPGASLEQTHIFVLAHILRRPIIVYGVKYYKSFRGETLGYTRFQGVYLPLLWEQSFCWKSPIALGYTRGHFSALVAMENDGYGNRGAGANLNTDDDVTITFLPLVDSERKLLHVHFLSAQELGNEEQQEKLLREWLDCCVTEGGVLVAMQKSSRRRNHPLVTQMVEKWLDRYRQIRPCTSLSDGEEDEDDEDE

SFRS16 (Homo sapiens) = target: T3, SFRS16 (Homo sapiens) (UniProt Q8N2M8); details: 5' phosphate; Domain array: 20 mM Tris-HCl pH 7.4, 200 mM KCl, 0.2 mM EDTA, 0.05% NP40, 2 ug/ul heparin, overnight 4 C. ORF array: PBS pH 7.0 with RNase inhibitor, 100 ng RNA, 1 h.; recombinant protein; protein details: N-terminal GST-6xHis; label: internal DY647 at G18; letters put together from the description
T3 sequence (looked up, limits assumed): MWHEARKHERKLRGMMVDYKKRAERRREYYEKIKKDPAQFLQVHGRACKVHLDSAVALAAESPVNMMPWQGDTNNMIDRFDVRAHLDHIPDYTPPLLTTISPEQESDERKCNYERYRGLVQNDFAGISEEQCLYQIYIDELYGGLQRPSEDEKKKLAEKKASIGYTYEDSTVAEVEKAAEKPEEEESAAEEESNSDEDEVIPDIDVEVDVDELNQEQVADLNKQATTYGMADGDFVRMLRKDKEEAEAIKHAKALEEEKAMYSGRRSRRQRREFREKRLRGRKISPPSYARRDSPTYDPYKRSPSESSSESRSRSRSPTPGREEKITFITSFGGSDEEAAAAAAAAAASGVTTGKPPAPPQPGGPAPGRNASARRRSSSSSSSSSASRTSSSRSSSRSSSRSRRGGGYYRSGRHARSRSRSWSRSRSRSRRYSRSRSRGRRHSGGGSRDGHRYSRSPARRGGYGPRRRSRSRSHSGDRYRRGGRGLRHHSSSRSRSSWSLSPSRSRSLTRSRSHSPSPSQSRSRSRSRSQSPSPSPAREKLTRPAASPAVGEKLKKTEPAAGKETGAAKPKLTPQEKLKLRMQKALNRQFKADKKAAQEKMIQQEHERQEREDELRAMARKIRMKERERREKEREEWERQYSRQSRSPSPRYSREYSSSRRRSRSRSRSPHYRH

UXT (Homo sapiens) = UXT (Homo sapiens) (UniProt Q9UBK9); details: 5' phosphate; Domain array: 20 mM Tris-HCl pH 7.4, 200 mM KCl, 0.2 mM EDTA, 0.05% NP40, 2 ug/ul heparin, overnight 4 C. ORF array: PBS pH 7.0 with RNase inhibitor, 100 ng RNA, 1 h.; recombinant protein; protein details: N-terminal GST-6xHis; label: internal DY647 at G18; letters put together from the description
C8orf44 (Homo sapiens) = target: T4, C8orf44 (Homo sapiens) (UniProt Q96CB5); details: 5' phosphate; amino-C6 U at position 18; Domain array: 20 mM Tris-HCl pH 7.4, 200 mM KCl, 0.2 mM EDTA, 0.05% NP40, 2 ug/ul heparin, overnight 4 C. ORF array: PBS pH 7.0 with RNase inhibitor, 100 ng RNA, 1 h.; recombinant protein; protein details: N-terminal GST-6xHis; label: internal Cy5 or DY647
T4 sequence (looked up, limits assumed): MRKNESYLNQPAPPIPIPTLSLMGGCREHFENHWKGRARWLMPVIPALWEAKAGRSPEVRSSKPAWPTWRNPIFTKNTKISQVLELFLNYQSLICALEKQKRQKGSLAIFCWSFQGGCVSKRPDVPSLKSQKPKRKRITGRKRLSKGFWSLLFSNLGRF

LETM1 (Homo sapiens) = LETM1 (Homo sapiens) (UniProt O95202); details: 5' phosphate; amino-C6 U at position 18; Domain array: 20 mM Tris-HCl pH 7.4, 200 mM KCl, 0.2 mM EDTA, 0.05% NP40, 2 ug/ul heparin, overnight 4 C. ORF array: PBS pH 7.0 with RNase inhibitor, 100 ng RNA, 1 h.; recombinant protein; protein details: N-terminal GST-6xHis; label: internal Cy5 or DY647

Measured: binding result

CAGUGCAAUGAUGAAAGGGCAU [miR-130b (internal labeling)]
binds: CXorf20 (Homo sapiens) | DTNA (Homo sapiens) | TMCO5 (Homo sapiens) | ZNF397 (Homo sapiens) | ZRANB1 (Homo sapiens)

UAGCUUAUCAGACUGAUGUUGA [miR-21 (internal labeling)]
binds: SFRS16 (Homo sapiens) | UXT (Homo sapiens)

UGAGGUAGUAGGUUGUGUGGUU [let-7b (internal labeling)]
binds: C8orf44 (Homo sapiens) | LETM1 (Homo sapiens)
